Our source for the binding values is article PMC12767118.

The experiment has as its target ZDHHC2 C‐terminal fragment (GST pull‐down assay). Description: pull-down; GST fusion protein (E. coli BL21, pET‐GST) captured overnight at 4 °C on glutathione–agarose beads, then mixed with cell lysate of the target protein overnight at 4 °C; SDS-PAGE; only the target purified.

Results are given in words; binding and its absence hold for the method and conditions named. Binding seen in cells or lysates may run through a third protein. Binding calls can cover weak binding; strength is not graded here. Tags and fused reporters may be left off the sequences shown.

B1: recombinant USP19 (GST pull‐down assays) (enzyme, UniProt O94966 1-1318)
chain: MSGGASATGPRRGPPGLEDTTSKKKQKDRANQESKDGDPRKETGSRYVAQAGLEPLASGDPSASASHAAGITGSRHRTRLFFPSSSGSASTPQEEQTKEGACEDPHDLLATPTPELLLDWRQSAEEVIVKLRVGVGPLQLEDVDAAFTDTDCVVRFAGGQQWGGVFYAEIKSSCAKVQTRKGSLLHLTLPKKVPMLTWPSLLVEADEQLCIPPLNSQTCLLGSEENLAPLAGEKAVPPGNDPVSPAMVRSRNPGKDDCAKEEMAVAADAATLVDEPESMVNLAFVKNDSYEKGPDSVVVHVYVKEICRDTSRVLFREQDFTLIFQTRDGNFLRLHPGCGPHTTFRWQVKLRNLIEPEQCTFCFTASRIDICLRKRQSQRWGGLEAPAARVGGAKVAVPTGPTPLDSTPPGGAPHPLTGQEEARAVEKDKSKARSEDTGLDSVATRTPMEHVTPKPETHLASPKPTCMVPPMPHSPVSGDSVEEEEEEEKKVCLPGFTGLVNLGNTCFMNSVIQSLSNTRELRDFFHDRSFEAEINYNNPLGTGGRLAIGFAVLLRALWKGTHHAFQPSKLKAIVASKASQFTGYAQHDAQEFMAFLLDGLHEDLNRIQNKPYTETVDSDGRPDEVVAEEAWQRHKMRNDSFIVDLFQGQYKSKLVCPVCAKVSITFDPFLYLPVPLPQKQKVLPVFYFAREPHSKPIKFLVSVSKENSTASEVLDSLSQSVHVKPENLRLAEVIKNRFHRVFLPSHSLDTVSPSDTLLCFELLSSELAKERVVVLEVQQRPQVPSVPISKCAACQRKQQSEDEKLKRCTRCYRVGYCNQLCQKTHWPDHKGLCRPENIGYPFLVSVPASRLTYARLAQLLEGYARYSVSVFQPPFQPGRMALESQSPGCTTLLSTGSLEAGDSERDPIQPPELQLVTPMAEGDTGLPRVWAAPDRGPVPSTSGISSEMLASGPIEVGSLPAGERVSRPEAAVPGYQHPSEAMNAHTPQFFIYKIDSSNREQRLEDKGDTPLELGDDCSLALVWRNNERLQEFVLVASKELECAEDPGSAGEAARAGHFTLDQCLNLFTRPEVLAPEEAWYCPQCKQHREASKQLLLWRLPNVLIVQLKRFSFRSFIWRDKINDLVEFPVRNLDLSKFCIGQKEEQLPSYDLYAVINHYGGMIGGHYTACARLPNDRSSQRSDVGWRLFDDSTVTTVDESQVVTRYAYVLFYRRRNSPVERPPRAGHSEHHPDLGPAAEAAASQASRIWQELEAEEEPVPEGSGPLGPWGPQDWVGPLPRGPTTPDEGCLRYFVLGTVAALVALVLNVFYPLVSQSRWR
For the molecule B1, the binding entry is reported as “binds”.
